# Assay results: the supplement of paper PMC9233669
# Variants at the background level are over-represented here.
# Legend:
# biotinyl-Trp-oxazolone = assay: self-aminoacylation, catalytic enhancement (BWO) (fold over background); higher = more active; k-Seq, kA / k0A0; sequences stand for … in GGGAAUGGAUCCACAUCUACGAAUUC…UUCACUGCAGACUUGACGAAGCUG
# How it was run: (§1)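 Mutagenized RNA pools with a 21-nt variable region (0.43 μM) reacted with each biotinyl-aminoacyl-oxazolone at 2–1250 μM. Reactions ran in 50 μL HEPES/NaCl/KCl/MgCl2/CaCl2 buffer with 5% acetonitrile, pH 6.9–7.0, for 90 minutes at room temperature. Streptavidin-captured RNA was quantified by triplicate qPCR and Illumina sequencing, and per-sequence fraction reacted was fit to a pseudo-first-order model with 1000 bootstraps. Catalytic enhancement is median kA divided by the uncatalyzed rate, the low-activity peak of a bimodal Gaussian fit.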
# biotinyl-Leu-oxazolone = assay: self-aminoacylation, catalytic enhancement (BLO) (fold over background); higher = more active; k-Seq, kA / k0A0; sequences stand for … in GGGAAUGGAUCCACAUCUACGAAUUC…UUCACUGCAGACUUGACGAAGCUG
# How it was run: as §1
# biotinyl-Val-oxazolone = assay: self-aminoacylation, catalytic enhancement (BVO) (fold over background); higher = more active; k-Seq, kA / k0A0; sequences stand for … in GGGAAUGGAUCCACAUCUACGAAUUC…UUCACUGCAGACUUGACGAAGCUG
# How it was run: as §1
# biotinyl-Ile-oxazolone = assay: self-aminoacylation, catalytic enhancement (BIO) (fold over background); higher = more active; k-Seq, kA / k0A0; sequences stand for … in GGGAAUGGAUCCACAUCUACGAAUUC…UUCACUGCAGACUUGACGAAGCUG
# How it was run: as §1
# biotinyl-Met-oxazolone = assay: self-aminoacylation, catalytic enhancement (BMO) (fold over background); higher = more active; k-Seq, kA / k0A0; sequences stand for … in GGGAAUGGAUCCACAUCUACGAAUUC…UUCACUGCAGACUUGACGAAGCUG
# How it was run: as §1
# biotinyl-Phe-oxazolone = assay: self-aminoacylation, catalytic enhancement (BFO) (fold over background); higher = more active; k-Seq, kA / k0A0; sequences stand for … in GGGAAUGGAUCCACAUCUACGAAUUC…UUCACUGCAGACUUGACGAAGCUG
# How it was run: as §1
Sequence,self-aminoacylation (biotinyl-Trp-oxazolone),self-aminoacylation (biotinyl-Leu-oxazolone),self-aminoacylation (biotinyl-Val-oxazolone),self-aminoacylation (biotinyl-Ile-oxazolone),self-aminoacylation (biotinyl-Met-oxazolone),self-aminoacylation (biotinyl-Phe-oxazolone)
AAGUUUGCUAAUAGUCGCCCG [Fam3.1 aminoacylation ribozyme variant],3.76,3.87,2.69,3.76,2.98,9.34
AAGUUUGCUAAUAGUCGGAUG [Fam3.1 aminoacylation ribozyme variant],1.52,1.08,1.09,1.35,1.46,0.931
AAGUUUGCUAAUAGUCUCACG [Fam3.1 aminoacylation ribozyme variant],0.996,0.712,0.727,0.708,0.701,0.693
AAGUUUGCUAAUAGUCUCCAG [Fam3.1 aminoacylation ribozyme variant],1.02,0.909,0.947,1.1,0.855,1.59
AAGUUUGCUAAUAGUUACAAG [Fam3.1 aminoacylation ribozyme variant],1.77,1.15,1.32,1.21,1.93,1.95
AAGUUUGCUAAUAGUUUCAAG [Fam3.1 aminoacylation ribozyme variant],1.24,1.18,1.15,1.25,1.25,1.17
AAGUUUGCUAAUAUUCGAAAG [Fam3.1 aminoacylation ribozyme variant],0.858,0.818,0.819,0.843,0.841,0.874
AAGUUUGCUAAUAUUCGCACG [Fam3.1 aminoacylation ribozyme variant],1.35,0.994,0.853,1.01,1.36,1.27
AAGUUUGCUAAUAUUCGCUAG [Fam3.1 aminoacylation ribozyme variant],0.876,1.12,1.06,1.35,0.987,0.695
AAGUUUGCUAAUAUUCGGAAG [Fam3.1 aminoacylation ribozyme variant],1.65,1.03,0.703,1.04,1.27,1.16
AAGUUUGCUAAUCGUCCCAAG [Fam3.1 aminoacylation ribozyme variant],0.731,0.881,0.842,0.884,0.783,1.29
AAGUUUGCUAAUCGUCGCAAC [Fam3.1 aminoacylation ribozyme variant],0.905,1.26,1,1.09,1.71,0.977
AAGUUUGCUAAUCGUCGCUAG [Fam3.1 aminoacylation ribozyme variant],0.871,0.87,0.834,0.976,0.844,1.07
AAGUUUGCUAAUGGUCGCAGG [Fam3.1 aminoacylation ribozyme variant],1.46,1.64,1.13,1.28,1.2,1.68
AAGUUUGCUAAUGGUCGCAUG [Fam3.1 aminoacylation ribozyme variant],0.884,1.02,0.988,0.849,1.1,1.1
AAGUUUGCUAAUUGUAGCAAG [Fam3.1 aminoacylation ribozyme variant],1.02,0.95,1.03,0.854,0.979,0.987
AAGUUUGCUAAUUGUCGGAAG [Fam3.1 aminoacylation ribozyme variant],1.15,1.2,0.884,1.01,0.821,0.977
AAGUUUGCUACUAGGCGCAAG [Fam3.1 aminoacylation ribozyme variant],0.564,0.68,0.64,0.653,0.709,1.84
AAGUUUGCUACUAUUCGCAAG [Fam3.1 aminoacylation ribozyme variant],1.08,0.925,0.894,1.15,0.911,0.962
AAGUUUGCUAUUAAUCGCAAG [Fam3.1 aminoacylation ribozyme variant],0.63,0.727,0.744,0.703,0.63,0.801
AAGUUUGCUAUUAGUGGCAAG [Fam3.1 aminoacylation ribozyme variant],0.71,0.589,0.663,0.804,0.895,0.741
AAGUUUGCUCAUAGUCGCUAG [Fam3.1 aminoacylation ribozyme variant],0.89,0.807,0.866,0.817,0.928,0.967
AAGUUUGCUCAUAGUCGUAAG [Fam3.1 aminoacylation ribozyme variant],3.67,0.805,0.91,0.922,1.29,14.6
AAGUUUGCUCGUAGUCGCAAG [Fam3.1 aminoacylation ribozyme variant],1.73,0.9,0.774,0.861,0.929,1.87
AAGUUUGCUGAUAGUCCCAAG [Fam3.1 aminoacylation ribozyme variant],1.08,0.786,0.847,1.17,0.626,0.972
AAGUUUGCUUAUAGACGCAAG [Fam3.1 aminoacylation ribozyme variant],0.629,0.495,0.585,0.591,0.559,0.84

Sequence,self-aminoacylation (biotinyl-Trp-oxazolone),self-aminoacylation (biotinyl-Leu-oxazolone),self-aminoacylation (biotinyl-Val-oxazolone),self-aminoacylation (biotinyl-Ile-oxazolone),self-aminoacylation (biotinyl-Met-oxazolone),self-aminoacylation (biotinyl-Phe-oxazolone)
AAGUUUGCUUAUAGGCGCAAG [Fam3.1 aminoacylation ribozyme variant],0.9,0.466,0.79,0.699,0.675,0.967
AAGUUUGCUUAUAGUCGUAAG [Fam3.1 aminoacylation ribozyme variant],0.779,0.795,0.856,0.703,0.817,1.12
AAGUUUGCUUAUCGUCGCAAG [Fam3.1 aminoacylation ribozyme variant],1.23,0.746,0.838,0.821,0.842,0.924
AAGUUUGGAAAUAGUCGCAAG [Fam3.1 aminoacylation ribozyme variant],1.82,1.12,1.3,1.5,1.19,1.64
AAGUUUGGGAAUAGUCGCAAG [Fam3.1 aminoacylation ribozyme variant],1.69,1.05,1.25,1.32,0.876,1.95
AAGUUUGGUAAUAGUCGAAAG [Fam3.1 aminoacylation ribozyme variant],0.952,0.79,0.969,0.898,0.881,1.65
AAGUUUGGUAAUAUUCGCAAG [Fam3.1 aminoacylation ribozyme variant],1.64,1.37,1.44,1.65,1.3,1.67
AAGUUUGUAAAUAGUCGCAAG [Fam3.1 aminoacylation ribozyme variant],1.21,1.11,0.922,0.948,1.01,1.17
AAGUUUGUUAAUAGUAGCAAG [Fam3.1 aminoacylation ribozyme variant],1.09,0.766,1.01,0.903,1.03,1.18
AAGUUUUCUAAUAGGCGCAAG [Fam3.1 aminoacylation ribozyme variant],1.26,1.13,1.17,1.47,1.46,1.94
AAGUUUUCUAAUAGUCACAAG [Fam3.1 aminoacylation ribozyme variant],1.87,1.4,1.64,1.64,1.25,2.39
AAGUUUUCUAAUAUUCGCAAG [Fam3.1 aminoacylation ribozyme variant],1.32,1.23,1.35,1.71,1.44,1.34
AAUCUCCUAGGUCAUCGGGUG [Fam2.2 aminoacylation ribozyme variant],5.91,6.83,4.51,4.3,6.93,35.1
AAUUCCCUGGUCAUCGAGUGA [Fam2.1 aminoacylation ribozyme variant],13,10.8,6.09,5.6,10.1,41.5
AAUUUUGCUAAUAGUCCCAAG [Fam3.1 aminoacylation ribozyme variant],1.26,0.905,1.03,1.3,1.21,1.75
AAUUUUGCUAUUAGUCGCAAG [Fam3.1 aminoacylation ribozyme variant],1.85,1.89,1.63,1.98,1.71,2.76
ACGUUUGCUAAUAAUCGCAAG [Fam3.1 aminoacylation ribozyme variant],0.805,1.4,1.1,1.4,1.24,1.96
ACUACCCUGGUCAUCGAGUCA [Fam2.1 aminoacylation ribozyme variant],0.697,0.802,0.82,0.883,1.01,0.856
ACUCACCUAGGUCGUCGGGUG [Fam2.2 aminoacylation ribozyme variant],3.42,2.25,2.4,2.58,2.56,6.16
AGGUUUGCUAAUAGUCGCUAG [Fam3.1 aminoacylation ribozyme variant],1.06,1.13,1.04,1.2,0.964,1.77
AGGUUUGCUAUUAGUCGCAAG [Fam3.1 aminoacylation ribozyme variant],1.08,1.49,1.17,1.28,1.17,3.21
AGUACCCUGGUCAUCGAAUGA [Fam2.1 aminoacylation ribozyme variant],1.04,1.29,1.15,1.06,0.883,1.01
AGUCACCUAGGACAUCGGGUG [Fam2.2 aminoacylation ribozyme variant],6.31,4.11,5.02,4.13,4.24,26.6
AGUCACCUAGGUCACCGGGUG [Fam2.2 aminoacylation ribozyme variant],6.49,4.38,4.47,4.07,4.49,31.7
AGUCACCUAGGUCUUCGGGUG [Fam2.2 aminoacylation ribozyme variant],8.99,8.46,6.48,6.51,6.75,56.4
